Screening data, single-dose tests

Protein sequences, listed by entry. Tags and fused reporters are not part of them. Residues count along the entry.
UniProt P9WNZ1, whole entry: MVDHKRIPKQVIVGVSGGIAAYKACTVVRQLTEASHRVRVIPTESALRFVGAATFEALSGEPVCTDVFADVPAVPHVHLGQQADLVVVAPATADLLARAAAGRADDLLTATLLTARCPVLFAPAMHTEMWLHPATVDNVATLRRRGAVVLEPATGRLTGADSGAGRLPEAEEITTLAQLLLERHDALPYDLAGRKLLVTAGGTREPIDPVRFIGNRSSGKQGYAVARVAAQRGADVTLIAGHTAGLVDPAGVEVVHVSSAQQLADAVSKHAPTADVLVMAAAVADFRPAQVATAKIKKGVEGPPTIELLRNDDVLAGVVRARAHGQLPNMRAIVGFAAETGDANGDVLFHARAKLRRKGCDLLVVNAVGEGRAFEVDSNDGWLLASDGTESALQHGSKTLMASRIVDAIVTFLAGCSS
UniProt I6X8D2, whole entry: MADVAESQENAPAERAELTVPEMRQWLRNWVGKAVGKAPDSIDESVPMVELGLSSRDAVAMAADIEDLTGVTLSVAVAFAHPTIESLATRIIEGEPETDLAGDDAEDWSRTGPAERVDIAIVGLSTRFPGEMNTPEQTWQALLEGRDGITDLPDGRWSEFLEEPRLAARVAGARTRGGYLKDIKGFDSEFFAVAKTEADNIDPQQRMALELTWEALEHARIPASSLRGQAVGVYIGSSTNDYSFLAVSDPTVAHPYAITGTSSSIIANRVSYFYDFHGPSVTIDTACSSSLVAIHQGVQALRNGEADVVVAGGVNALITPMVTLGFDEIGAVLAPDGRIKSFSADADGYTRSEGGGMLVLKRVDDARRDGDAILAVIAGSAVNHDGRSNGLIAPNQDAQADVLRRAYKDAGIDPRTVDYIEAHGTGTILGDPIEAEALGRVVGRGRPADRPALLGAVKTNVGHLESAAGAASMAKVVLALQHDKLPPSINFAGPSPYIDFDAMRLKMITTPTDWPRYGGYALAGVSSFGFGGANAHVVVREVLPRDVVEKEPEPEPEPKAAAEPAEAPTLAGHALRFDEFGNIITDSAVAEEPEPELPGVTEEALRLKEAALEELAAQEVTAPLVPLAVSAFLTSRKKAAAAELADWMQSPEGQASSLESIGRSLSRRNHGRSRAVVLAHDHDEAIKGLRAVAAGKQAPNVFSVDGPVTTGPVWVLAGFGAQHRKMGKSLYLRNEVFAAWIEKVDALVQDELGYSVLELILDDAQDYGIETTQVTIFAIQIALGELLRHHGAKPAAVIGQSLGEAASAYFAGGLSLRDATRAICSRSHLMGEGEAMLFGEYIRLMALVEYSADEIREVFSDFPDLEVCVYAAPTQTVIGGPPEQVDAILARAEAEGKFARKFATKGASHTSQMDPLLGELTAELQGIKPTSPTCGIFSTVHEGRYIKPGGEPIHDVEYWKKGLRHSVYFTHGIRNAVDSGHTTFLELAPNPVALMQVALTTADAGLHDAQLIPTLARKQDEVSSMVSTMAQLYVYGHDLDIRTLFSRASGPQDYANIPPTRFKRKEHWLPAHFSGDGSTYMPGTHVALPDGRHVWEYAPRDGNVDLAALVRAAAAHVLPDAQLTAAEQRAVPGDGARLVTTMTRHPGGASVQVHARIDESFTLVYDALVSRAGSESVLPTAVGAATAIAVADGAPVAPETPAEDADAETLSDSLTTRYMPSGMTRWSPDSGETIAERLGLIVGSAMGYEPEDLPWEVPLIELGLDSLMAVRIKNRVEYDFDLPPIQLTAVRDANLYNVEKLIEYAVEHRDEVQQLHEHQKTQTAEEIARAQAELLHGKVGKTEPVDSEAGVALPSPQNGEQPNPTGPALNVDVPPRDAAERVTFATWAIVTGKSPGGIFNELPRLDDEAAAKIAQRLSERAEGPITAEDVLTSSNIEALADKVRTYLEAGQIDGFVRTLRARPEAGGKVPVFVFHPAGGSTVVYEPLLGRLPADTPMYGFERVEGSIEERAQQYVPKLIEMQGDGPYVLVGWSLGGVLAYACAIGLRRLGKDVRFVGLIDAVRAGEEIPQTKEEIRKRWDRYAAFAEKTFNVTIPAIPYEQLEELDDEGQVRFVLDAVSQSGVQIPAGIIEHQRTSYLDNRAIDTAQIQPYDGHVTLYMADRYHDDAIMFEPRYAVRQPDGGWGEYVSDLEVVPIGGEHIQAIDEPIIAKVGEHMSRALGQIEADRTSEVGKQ
UniProt P9WPC5, whole entry: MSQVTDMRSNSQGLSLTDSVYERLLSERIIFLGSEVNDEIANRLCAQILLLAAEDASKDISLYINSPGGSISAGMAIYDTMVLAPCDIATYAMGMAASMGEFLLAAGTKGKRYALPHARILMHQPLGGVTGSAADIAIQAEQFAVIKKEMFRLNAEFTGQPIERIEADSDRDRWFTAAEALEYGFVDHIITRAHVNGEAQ
UniProt P9WPC3, whole entry partner: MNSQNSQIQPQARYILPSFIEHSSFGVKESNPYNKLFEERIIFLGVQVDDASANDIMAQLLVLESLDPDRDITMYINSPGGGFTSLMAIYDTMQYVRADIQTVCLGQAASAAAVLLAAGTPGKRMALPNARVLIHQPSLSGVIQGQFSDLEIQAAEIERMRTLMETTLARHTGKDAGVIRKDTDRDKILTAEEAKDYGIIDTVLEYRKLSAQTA
UniProt A4I591, 1-473: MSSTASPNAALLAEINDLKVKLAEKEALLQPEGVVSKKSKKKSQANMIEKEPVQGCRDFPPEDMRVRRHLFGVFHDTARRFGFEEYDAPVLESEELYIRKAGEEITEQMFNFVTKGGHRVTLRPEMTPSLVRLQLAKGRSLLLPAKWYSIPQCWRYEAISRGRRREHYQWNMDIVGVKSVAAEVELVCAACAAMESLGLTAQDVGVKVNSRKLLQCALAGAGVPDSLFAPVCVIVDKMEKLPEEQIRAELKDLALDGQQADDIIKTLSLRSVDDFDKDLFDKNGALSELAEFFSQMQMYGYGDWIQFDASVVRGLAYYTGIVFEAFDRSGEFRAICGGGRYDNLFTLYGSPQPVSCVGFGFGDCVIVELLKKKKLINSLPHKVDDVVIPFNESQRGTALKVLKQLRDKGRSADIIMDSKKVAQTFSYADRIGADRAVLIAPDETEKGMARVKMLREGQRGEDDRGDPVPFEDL
UniProt P9WFT3, whole entry: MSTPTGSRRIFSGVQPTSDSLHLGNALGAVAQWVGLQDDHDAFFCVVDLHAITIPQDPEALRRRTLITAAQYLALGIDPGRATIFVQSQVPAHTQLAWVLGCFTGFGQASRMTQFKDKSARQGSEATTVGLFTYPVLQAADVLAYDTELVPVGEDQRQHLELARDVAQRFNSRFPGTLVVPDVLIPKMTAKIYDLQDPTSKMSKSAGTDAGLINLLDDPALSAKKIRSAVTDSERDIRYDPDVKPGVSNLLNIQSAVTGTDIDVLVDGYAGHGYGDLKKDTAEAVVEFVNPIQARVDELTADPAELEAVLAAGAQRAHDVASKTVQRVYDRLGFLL

Measurements from “University of Dundee, Small-Polar-MMV Screening Library” (2021), ChEMBL document CHEMBL3988442.

CoaBC: 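Enzyme assay of CoaBC with a phosphate dye (Biomol Green) read at 650 nm. Target: Coenzyme A biosynthesis protein CoaBC, Mycobacterium tuberculosis (UniProt P9WNZ1). Tested at 30 µM. Direction is inferred from only a few compounds that gave an IC50; most scored high, so higher reads as stronger inhibition. Most strong results did not repeat in a second test. Of about 67,000 compounds tested this way, about 40 (0.06%) reached 50% or more in at least one test.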
Pks13 thioesterase: 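Polyketide synthase Pks13, Mycobacterium tuberculosis (UniProt I6X8D2). Enzyme assay of the thioesterase domain of polyketide synthase 13; the read-out is not stated. Concentration: 30 µM. Higher reads as stronger inhibition (inferred from which compounds were picked for retests). Size under these conditions: about 67,000 compounds, about 300 of them at 50% or above in at least one test.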
ClpP1P2: 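Protease assay of ClpP1P2, read by the AMC dye that it sets free. Target: ClpP1P2, Mycobacterium tuberculosis (UniProt P9WPC5 and UniProt P9WPC3). Tested at 50 µM. Higher reads as stronger inhibition, judged from the few compounds that gave an IC50. Most other retested compounds had strongly negative values. Size under these conditions: about 69,000 compounds, about 10 of them at 50% or above in at least one test.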
LiHisRS: 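Enzyme assay of histidyl-tRNA synthetase; the read-out is not stated. Target: Histidine-tRNA ligase, Leishmania infantum (UniProt A4I591). Compounds at 30 µM. The record gives no direction; compounds that gave an IC50 in retests scored well above the rest, so higher reads as stronger inhibition. The assay is labelled LdHisRS but filed under L. infantum. About 69,000 compounds were tested under these conditions; 0.6% (about 410) showed 50% or more at least once.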
MtTrpRS: 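Enzyme assay of tryptophanyl-tRNA synthetase; the read-out is not stated. Target: Tryptophan-tRNA ligase, Mycobacterium tuberculosis (UniProt P9WFT3). Concentration: 10 µM. Higher most likely means stronger inhibition; the record gives no direction and few retests gave an IC50. About 65,000 compounds were tested under these conditions; 0.098% (about 64) showed 50% or more at least once.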

Results are given as percent effect. The record does not define 0% and 100%; most values in the screen are far below 50% and negative numbers occur (in some assays of this library far below -100). Compounds were drawn at random from those tested, without regard to their results. A dash means the value is not listed here; it may have been measured.

| structure | CoaBC | Pks13 thioesterase | ClpP1P2 | LiHisRS | MtTrpRS |
|---|---|---|---|---|---|
| `COc1c(C2CCCN2C(=O)c2csc(C3CC3)n2)c(C)nn1C` (stereo not drawn) | -0.3871 | -16.86 | -3.67 | -1.739 | 3.408 |
| `O=C(O)c1ccc(CCNC(=O)C2(O)Cc3ccccc3C2)cc1` | 0.8264 | - | 0.9917 | 4 | -1.857 |
| `Cc1nonc1C1CCCN1C(=O)CCc1cc2n(n1)CCCNC2` (stereo not drawn) | 5.495 | -31.83 | -3.925 | 8.571 | -3.494 |
| `O=C1N(c2ccsc2)CCC12CCCN(Cc1ccccn1)C2` (stereo not drawn) | 7.492 | -27.7 | -7.482 | 37.14 | -2.278 |
| `Cn1cc(CN2C[C@H](N3CCOCC3)[C@@H]3OCCC[C@@H]32)cn1` | 11.21 | -35.71 | 5.749 | 12.28 | 0.6342 |
| `CS(=O)(=O)c1nccn1Cc1ccc(C(N)=O)cc1` | 1.474 | -20.77 | -5.28 | 19.35 | 0.5128 |
| `Cc1cccc(CN2CCc3onc(CN(C)C)c3C2)n1` | 0.4878 | 7.846 | 2.338 | 11.32 | - |
| `CN(CC(=O)N1CCCC1)Cc1nc2c(cnn2C)c(=O)[nH]1` | 1.408 | -17.61 | -1.706 | 25.64 | -4.376 |
| `C1CC(CN2C[C@H]3CC[C@@H]2CN(Cc2nnc(C4CC4)o2)C3)C1` | 2.481 | -1.258 | -10.07 | 10.64 | 0.06345 |
| `C[C@H]1C[C@H]2CN(Cc3ccccn3)CC[C@@H]2O1` | 2.231 | -0.5672 | -4.74 | 11.93 | 0.07639 |
| `O=C(c1ccoc1)N1CC[C@@H]2O[C@@H](COCc3ccccn3)CC[C@@H]21` | -1.014 | -1.922 | -2.733 | -0.9174 | 0.5348 |
| `Cc1noc(C)c1CN1CC[C@H]2OCC[C@@]2(C(=O)N2CCOCC2)C1` | 1.826 | 4.044 | -6.07 | -17.43 | 1.146 |
| `O=C(c1cccnc1)N1CCC2(CCN(C(=O)c3ccco3)CC2)C1` | -2.716 | -5.267 | 5.191 | 11.82 | - |
| `Cc1cncc(C(=O)N2CC[C@@]3(C[C@H](NS(C)(=O)=O)CCO3)C2)c1` | 5.25 | -8.455 | 0.7479 | 16 | -5.004 |
| `c1cc2cc[nH]c2c(CC2CN(Cc3cscn3)C2)n1` | 10.43 | 0.006248 | -39.59 | 43.97 | -3.184 |
| `CN(C)C(=O)N1CC2(CCNCC2)c2cc(Cl)ccc21` | 1.015 | -52.33 | 0.6027 | 26.47 | 10.78 |
| `O=C(c1cc2c(s1)CCC2)N1CCCC(c2cnccn2)C1` (stereo not drawn) | 6.294 | -13.87 | 16.38 | 11.35 | 2.576 |
| `Cc1ccc(C)c(Oc2ccc(CNC(=O)C3CNC(=O)N3)cn2)c1` (stereo not drawn) | -0.7212 | 7.944 | -1.913 | 18.75 | 1.027 |
| `O=C(c1ccccn1)N1Cc2ccccc2OC2(CCOCC2)C1` | -4.623 | 4.296 | 1.573 | 22.11 | -6.319 |
| `Cc1ccc(-c2nnc(CNCCn3cccn3)o2)cc1` | -1.05 | - | -16.96 | 6.78 | 19.37 |
| `C[C@@H]1CN(Cc2ccc(-c3ccncc3)cc2F)CC(C(N)=O)O1` (stereo partly drawn) | -1.276 | 1.576 | -11.27 | 11.67 | 13.88 |
| `CC(NC(=O)NCCCn1cncn1)c1ccc(F)cc1` (stereo not drawn) | -1.121 | 1.636 | -11.31 | 14.68 | 2.806 |
| `CCc1nccn1C1CCCN(C(=O)c2cn3c(C)cccc3n2)C1` (stereo not drawn) | 4.723 | -37.89 | -8.572 | 14.29 | -0.3178 |
| `CC(C)c1nccn1-c1cccc(C2CCN(C)CC2)n1` | 1.389 | -14.98 | -3.843 | 13.89 | 4.599 |
| `CN(CC(N)=O)Cc1cc(Cl)cc2cccnc12` | 9.921 | - | 6.078 | 16.96 | -9.276 |
| `COCCN1CCCc2sc(C(=O)Nc3ccc(C)nc3)nc21` | 1.025 | 12.02 | -6.77 | 32 | -6.221 |
| `CCN(CC)C1CCN(C(=O)NCc2cccc(-n3ccnc3)c2)C1` (stereo not drawn) | -1.168 | -21.66 | -7.817 | -4.425 | -0.4599 |
| `Cc1nn(C)cc1CNC(=O)c1cn(CCC2CCCCN2)nn1` (stereo not drawn) | -4.464 | -7.176 | -2.733 | 22.33 | 0 |
| `CCOC(=O)CCNC(=O)N1CCCC(CNC(=O)c2cccs2)C1` (stereo not drawn) | -0.2484 | -15.03 | -7.805 | 9.524 | 2.477 |
| `CCC(CC)NC(=O)Cn1nc(C)nc1-c1ccccc1` | -3.915 | - | 9.954 | 16.67 | -1.956 |
| `CC(C)n1nc(CNc2ncccn2)c2c1CN(C)CC2` | 0.4831 | -11.21 | 0.345 | 3.03 | -10.73 |
| `Nc1cc(CCC2CN(Cc3cccc(C(=O)O)c3)CCO2)ccn1` (stereo not drawn) | 3.398 | 2.378 | -6.102 | 15.94 | - |
| `Cc1n[nH]c(C)c1NC(=O)CN1CCCC(CNC(=O)C(C)(C)C)C1` (stereo not drawn) | -1.33 | -9.178 | 4.563 | 5.6 | 2.044 |
| `CN1CCn2c(-c3ccccc3)cnc2C12CCN(CC1CC1)CC2` | -25.83 | -32.33 | -0.1121 | 21.37 | -1.763 |
| `CN(CCC(F)(F)F)c1nc2ccccc2c(=O)[nH]1` | -1.071 | -8.831 | -2.339 | 0 | -5.909 |
| `O=C(CN1CCN(c2ccc3nncn3n2)CC1)NC1CCCCC1` | 4.421 | 9.985 | -3.052 | 3.774 | 2.968 |
| `O=C(NC1CC1)N1CCOCC2(C1)CN(c1ccccc1)C(=O)CO2` (stereo not drawn) | -2.836 | -15.33 | -10.11 | 1.389 | -10.9 |
| `COc1cccc(CCC(=O)Nc2c(C)nn(C)c2C)c1OC` | 8.051 | -19.19 | -3.17 | 15 | -0.784 |
| `CNCCNc1ccc(-c2nc(-c3cccc(OC)c3OC)no2)cn1` | -1.799 | -36.09 | -2.608 | 11.46 | 5.416 |
| `COCC(=O)NCC(Cc1cccc(F)c1)n1cccc1` (stereo not drawn) | 10.78 | -7.84 | -3.905 | 13.91 | 10.26 |
| `O=C(N[C@@H]1CCN(C(=O)c2ccc(F)cc2Cl)C[C@H]1O)c1ccccn1` | 4.884 | -13.43 | -9.143 | 2.083 | -0.8892 |
| `CCN(CC)S(=O)(=O)c1ccc(CNC(=O)c2cc(C)on2)cc1` | 8.884 | -15.34 | 1.443 | 19.18 | 0.5201 |

Some entries from above, unchanged:

Result for O=C(c1cc2c(s1)CCC2)N1CCCC(c2cnccn2)C1 (stereo not drawn) was CoaBC: 6.294%; Pks13 thioesterase: -13.87%; ClpP1P2: 16.38%; LiHisRS: 11.35%; MtTrpRS: 2.576%.
Result for CN1CCn2c(-c3ccccc3)cnc2C12CCN(CC1CC1)CC2 was CoaBC: -25.83%; Pks13 thioesterase: -32.33%; ClpP1P2: -0.1121%; LiHisRS: 21.37%; MtTrpRS: -1.763%.
Result for c1cc2cc[nH]c2c(CC2CN(Cc3cscn3)C2)n1 was CoaBC: 10.43%; Pks13 thioesterase: 0.006248%; ClpP1P2: -39.59%; LiHisRS: 43.97%; MtTrpRS: -3.184%.
Result for Cc1ccc(-c2nnc(CNCCn3cccn3)o2)cc1 was CoaBC: -1.05%; ClpP1P2: -16.96%; LiHisRS: 6.78%; MtTrpRS: 19.37%.
Result for CS(=O)(=O)c1nccn1Cc1ccc(C(N)=O)cc1 was CoaBC: 1.474%; Pks13 thioesterase: -20.77%; ClpP1P2: -5.28%; LiHisRS: 19.35%; MtTrpRS: 0.5128%.